This assay has as its system Salmonella enterica serovar Typhimurium SL1344. Description: bacterial growth OD600 after 18 h with compound and polymyxin B; higher = more bacterial growth (less inhibition). The settings on record: 50 µM, Mueller-Hinton broth.

The structures appear in SMILES notation. Some of the results follow. Values are raw readings; no control value is given beside them.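 First-pass screen: polymyxin B was added at a level that permeabilizes the Salmonella outer membrane while sparing the inner membrane. DMSO wells, with and without polymyxin B, defined maximum growth. Because plates differed from one another, each plate's data were ranked separately and the compounds with the lowest OD600 were carried forward as hits.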

For the compound `Cc1oc(-c2ccccc2NC(=O)C2CCC2)nc1CNC(=O)c1cc(C2CC2)nc2ccccc12`, for the setting “polymyxin B 0.75 µg/mL”, the “bacterial growth OD600” value was 0.797.

On to `O=C(CCC1CCCN(Cc2cccnc2)C1)Nc1ccccc1F` (stereo not given), for which the “bacterial growth OD600” value (polymyxin B 1 µg/mL) was 0.926.

As to `C=C(C)CN(CC)C(=O)CC1(c2ccccc2)CC(=O)N(CCCOc2cccnc2)C1=O` (stereo not given), the “bacterial growth OD600” value (polymyxin B 0.75 µg/mL) worked out at 0.713.

`CN(CC1(O)CCCN(Cc2ccc(F)c(F)c2)C1=O)C1CCCCC1` (stereo not given): the “bacterial growth OD600” value (polymyxin B 1 µg/mL) was 0.979.

Turning to `COCC(=O)Nc1cc(C(=O)N(C)Cc2cccs2)cc2ncn(CCc3ccccc3)c12`, for the setting “polymyxin B 0.75 µg/mL”, the “bacterial growth OD600” value was 0.862.

With `CCC1CCCCN1C(=O)c1coc(COc2ccc3c(c2)OCO3)n1` (stereo not given), the “bacterial growth OD600” value (polymyxin B 1 µg/mL) came to 0.834.

Consider `CC(=O)Nc1cnn(-c2ccc(C(=O)N3CCC(Sc4ccc(F)cc4)CC3)cc2)c1`, for which the “bacterial growth OD600” value (polymyxin B 0.75 µg/mL) came to 0.464.

Turning to `O=S(=O)(c1cccc(F)c1)N(Cc1ccc(OCC2CCC2)cc1)C1CC1`, the “bacterial growth OD600” value (polymyxin B 0.75 µg/mL) came to 0.783.

As for `COc1ccc(CC2(CCC(=O)NCc3nc(-c4ccccc4)cs3)CCC(=O)N2)c(F)c1` (stereo not given), under “polymyxin B 0.75 µg/mL”, the “bacterial growth OD600” value is 0.789.

With `CCN(CC1CCCO1)C1CCN(c2nc(C)c3cc4c(cc3n2)CCC4)CC1` (stereo not given), under “polymyxin B 0.75 µg/mL”, the “bacterial growth OD600” value is 0.996.

Take `Cc1ccc(C(=O)Nc2ccc(N3CCC(NCc4scnc4-c4ccccc4)CC3)cc2)c(C)c1`: the “bacterial growth OD600” value (polymyxin B 0.75 µg/mL) was 0.698.

Take `CCOC(=O)C1(Cc2cccc(Cl)c2)CCCN(C(=O)CCc2cnn(C)c2)C1` (stereo not given): the “bacterial growth OD600” value (polymyxin B 1 µg/mL) was found to be 0.778.

For `COc1cc(C)c(CN2CCC(C(Cc3ccccc3)N(C)C(=O)c3ccn(C)n3)CC2)cc1C` (stereo not given), the “bacterial growth OD600” value (polymyxin B 0.75 µg/mL) was 0.868.

Turning to `CCOC(=O)C1(Cc2cccc(OC)c2)CCCN(S(=O)(=O)c2cccc(F)c2)C1` (stereo not given), for the setting “polymyxin B 1 µg/mL”, the “bacterial growth OD600” value was determined as 0.853.

Turning to `COc1ccc(C2(CC(=O)N3CCC(c4nc5ccccc5o4)CC3)CC(=O)N(C3CC3)C2=O)cc1` (stereo not given), the “bacterial growth OD600” value (polymyxin B 0.75 µg/mL) is 0.853.

Take `Cc1cnc(C(=O)NC2CC(=O)N(Cc3cccc4ccccc34)C2)cn1` (stereo not given): the “bacterial growth OD600” value (polymyxin B 1 µg/mL) worked out at 0.904.

In the case of `Cc1ccc(CCC(=O)N2CCCC(N3CCN(Cc4ccc5c(c4)OCO5)CC3)C2)cc1` (stereo not given), the “bacterial growth OD600” value (polymyxin B 1 µg/mL) came to 0.823.

With `Cc1nn(-c2ccccc2)c(C)c1CC(=O)N1CCC(n2c(C3CCCO3)nc3cc(C(F)(F)F)ccc32)CC1` (stereo not given), the “bacterial growth OD600” value (polymyxin B 0.75 µg/mL) was determined as 0.944.

As for `Cc1nc(C)c(CC(=O)N2CCCC(Nc3ccccc3)C2)s1` (stereo not given), under “polymyxin B 0.75 µg/mL”, the “bacterial growth OD600” value was determined as 0.825.

On to `Cc1noc(C)c1C(=O)N1CCC(C2CCN(c3ncccn3)CC2)C1` (stereo not given), for which, for the setting “polymyxin B 0.75 µg/mL”, the “bacterial growth OD600” value was determined as 0.733.

`CCOC(=O)C1(CCOc2ccccc2)CCN(Cc2ccc(OC)cc2)CC1`: the “bacterial growth OD600” value (polymyxin B 1 µg/mL) came out at 0.794.

Regarding `O=C(NCc1ccccn1)c1cccc(OC2CCN(C(=O)c3ccsc3)CC2)c1`, under “polymyxin B 1 µg/mL”, the “bacterial growth OD600” value stood at 0.992.

As to `CCOC(=O)C1(Cc2ccccc2F)CCCN(C(=O)c2cccnc2)C1` (stereo not given), the “bacterial growth OD600” value (polymyxin B 1 µg/mL) worked out at 0.992.

Consider `c1ccc(OCc2noc(-c3ccc(NC4CCSC4)nc3)n2)cc1` (stereo not given), for which the “bacterial growth OD600” value (polymyxin B 1 µg/mL) stood at 0.563.

On to `COc1ccc(C(=O)NC2CC2)cc1OC1CCN(Cc2ccccc2F)CC1`, for which, under “polymyxin B 1 µg/mL”, the “bacterial growth OD600” value was found to be 0.89.

Consider `CC1(C)Cc2c(cnn2-c2ccc(F)cc2)C(NC(=O)CCCN2CCCCC2=O)C1` (stereo not given), for which the “bacterial growth OD600” value (polymyxin B 1 µg/mL) came out at 0.879.

As for `Cc1ccc(C)c(OCc2cc(C(=O)N3CCC(N4CCSCC4)CC3)no2)c1`, the “bacterial growth OD600” value (polymyxin B 1 µg/mL) is 1.33.

Turning to `COC(=O)[C@@H]1CCCN1C(=O)Cc1ccc(N2CCC(NC[C@H]3CCc4ccccc4O3)CC2)cc1`, the “bacterial growth OD600” value (polymyxin B 0.75 µg/mL) was 0.759.

As for `CCOC(=O)CC1COCCN1Cc1nc(-c2cccc(C)c2)oc1C` (stereo not given), the “bacterial growth OD600” value (polymyxin B 1 µg/mL) is 0.939.

With `Cc1ccc(CN(C)CC2(O)CCCN(CC3CCC3)C2=O)o1` (stereo not given), the “bacterial growth OD600” value (polymyxin B 1 µg/mL) was determined as 0.891.

The values above are taken from the supplement of paper PMC12889115.
